The target of the assay is TRIAD1 (ARIH2, Ariadne RBR E3 ubiquitin protein ligase 2) (rat (endogenous in rat brain)). As to the kind of experiment: co-IP; endogenous proteins, rat brain after TBI; immunoprecipitation and Western blot; which protein was precipitated is not given. In general terms: Immunoblotting shows a protein as a band on a membrane.

Results are given in words; binding and its absence hold for the method and conditions named. Binding seen in cells or lysates may run through a third protein. A result given as binding can be weak or reduced; the word gives no strength.

B1: DISC1 (protein, UniProt Q810H6 1-846)
chain: MQGAGSRGAWIHSPSHCPGNGHGSPPAVAPQRRRLTRRPGYMRSTASPGIGFLSPAVGMPRPISAGLTGQEFYPSQSKARQCSLDLRSHCQDSLVGNPFLKGSLGPAVTSVGHLHPAQGSMRERMVHSGVHSGNDRRQSERLTGDSGCRQEFLSSDSSKSLASSLDVAWSKGSRGLKTVRPLVSPASNGPVDIPSLPGFQDTFTSNFSFIRLSLGAAGERGEAEGCLPSREAEPLHQSPQEMAAEGSGSDRPHGEPRHLWTFSLHAAPGLVDLAQGTRSNRQPECGMVSSSDAGFSSQDASPAGGRSDQDGGWADAHGWHALLREWEPMLQDYLLSNRRQLEVTSLILKLQKLQEKAVEDGDYDMAETLRQRLEDLEQEKGRLPWALPSQQPALRSFLGYLATQTHAALHGAPQRAGSDDPEAPLEGQRRTTAQDSLPGLAVTRRDWLMREKEQLQKEIEALRARVSVLEAKEQRLSQELEDQEMLLRWQGCDQMALVAQLSPGQLQEVSKALGETLTSARWAPFRVEPPETLRSLRERTKSLDLAVRELTEQVCSGEKLCSSLRKRLADLDTRLPALLEAKMLALSGSCFSTAKELAEEIWAVSSEREGLEMFLGRLLALSSRNTRRLGSVKEDYLRCRQDLALQEAAHKTRVKANTVKCTEVLEGQLSCCRCPLLERVWKADLEACQLLMQSLEIQEAGSSSHVEDEKQVHSTGEAAQTAALAVPRTPHPEEEKSPLQVLCEWNTYSASLPHCAAGLWKEESHVVFAEVGDKCEAIGMRLLHLEDQLLGAMHGHDEALFQSLQGELQMVKETLQTMFLQLQPAKEAGGEASASYSTAGAQEAED
In the case of B1, the binding result is “binds”.

(Values after article PMC6225628.)
